Data reported in PubChem BioAssay AID256 (DTP/NCI, 2004).
The list shows only some results of the screen, not a fair sample: it is rich in T/C values a quarter to a half above the control, in often repeated tests (any T/C) and in doses without a T/C. Further doses and runs are listed elsewhere. T/C: endpoint of the treated group in % of that of the vehicle group. Some doses have a count of surviving animals in place of a T/C: the source files T/C as zero there, which appears to mark a toxic dose or a test without result, not a measured value. Some doses without a T/C left all or most animals alive at the check, yet need not have been tolerated: survival well below the control is almost never listed, so the zero probably covers shortened survival too. Survivors were counted at the toxicity check, usually on the fifth day, unless a day is given; later deaths do not show. Schedules are NCI's codes, read here as Q, the interval in days (D) or hours (H), X, the number of doses. Some doses were run more than once; the values are given in rising order. For survival time, the PubChem record calls one and a half times the control and up active, and a quarter to a half above the control has no call in these data; cut-offs in other NCI protocols can differ. Some T/C values carry the count of animals alive at the toxicity check (mostly the fifth day); where none is given, no animal had died by that day.

Test system: CD2F1 mice, L1210 leukemia ip, survival T/C
Experiment: NCI In Vivo Anticancer Drug Screen. Data for tumor model L1210 Leukemia (intraperitoneal) in CD2F1 (CDF1) mice
Conditions: higher T/C = longer survival
Procedure, shortened: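 Read-out first: treated-group measurement over vehicle-control measurement, expressed as a ratio. Animals bore a transplanted tumor line and were dosed with compound or vehicle.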

[1] = T/C endpoint: mean survival time, dose: 100.0 mg/kg/injection, schedule: Q01DX009 (ip), vehicle: saline with Tween-80
[2] = T/C endpoint: mean survival time, dose: 200.0 mg/kg/injection, schedule: Q01DX009 (ip), vehicle: saline with Tween-80
[3] = T/C endpoint: mean survival time, dose: 300.0 mg/kg/injection, schedule: Q01DX001 (ip), vehicle: saline
[4] = T/C endpoint: mean survival time, dose: 300.0 mg/kg/injection, schedule: Q01DX001 (ip), vehicle: other
[5] = T/C endpoint: mean survival time, dose: 50.0 mg/kg/injection, schedule: Q01DX009 (ip), vehicle: Klucel (hydroxypropylcellulose) (HPC)
[6] = T/C endpoint: mean survival time, dose: 200.0 mg/kg/injection, schedule: Q01DX009 (ip), vehicle: Klucel (hydroxypropylcellulose) (HPC)
[7] = T/C endpoint: mean survival time, dose: 400.0 mg/kg/injection, schedule: Q04DX003 (ip), vehicle: saline with Tween-80
[8] = T/C endpoint: mean survival time, dose: 400.0 mg/kg/injection, schedule: Q01DX001 (ip), vehicle: saline with Tween-80
[9] = T/C endpoint: mean survival time, dose: 100.0 mg/kg/injection, schedule: Q04DX003 (ip), vehicle: saline with Tween-80
[10] = T/C endpoint: mean survival time, dose: 200.0 mg/kg/injection, schedule: Q04DX003 (ip), vehicle: saline with Tween-80
[11] = T/C endpoint: mean survival time, dose: 400.0 mg/kg/injection, schedule: Q01DX009 (ip), vehicle: saline
[12] = T/C endpoint: mean survival time, dose: 200.0 mg/kg/injection, schedule: Q01DX009 (ip), vehicle: saline
[13] = T/C endpoint: mean survival time, dose: 200.0 mg/kg/injection, schedule: Q04DX002 (ip), vehicle: saline with Tween-80

O=Nc1c(S(=O)(=O)O)cc2cc(S(=O)(=O)O)cc(O)c2c1O.[Cu+2]
survivor count (T/C endpoint: mean survival time, dose: 1.25 mg/kg/injection, schedule: Q01DX009 (ip), vehicle: saline): 2 of 6
survivor count (T/C endpoint: mean survival time, dose: 2.5 mg/kg/injection, schedule: Q01DX009 (ip), vehicle: saline): 1 of 6
survivor count (T/C endpoint: mean survival time, dose: 5.0 mg/kg/injection, schedule: Q01DX009 (ip), vehicle: saline): 1 of 6
survivor count (T/C endpoint: mean survival time, dose: 10.0 mg/kg/injection, schedule: Q04DX003 (ip), vehicle: saline): 0 of 6
survivor count (T/C endpoint: mean survival time, dose: 20.0 mg/kg/injection, schedule: Q04DX003 (ip), vehicle: saline): 0 of 6
survivor count (T/C endpoint: mean survival time, dose: 40.0 mg/kg/injection, schedule: Q04DX003 (ip), vehicle: saline): 0 of 6

C=C1c2cccc(O)c2C(O)=C2C(=O)[C@]3(O)C(O)=C(C(N)=O)C(=O)[C@@H](N(C)C)[C@@H]3[C@@H](O)[C@H]12
survivor count (T/C endpoint: median survival time, dose: 200.0 mg/kg/injection, schedule: Q01DX009 (ip), vehicle: Klucel (hydroxypropylcellulose) (HPC)): 5 of 6

C[CH2][Ge]([CH2]C)[CH2]C.C[CH2][Ge]([CH2]C)[CH2]C.C[CH2][Ge]([CH2]C)[O][Ge]([CH2]C)[CH2]C
survivor count [1]: 2 of 6
survivor count [2]: 1 of 6 and 3 of 10

CC1(CO)C2C=CC(C2)C1(C)CO (centres undefined)
survivor count [3]: 1 of 6

CC(C)CCCC(C)C1CCC2C3CC(C(=O)O)C(C)(CCC(=O)O)C3CCC12C (centres undefined)
survivor count [4]: 3 of 6

Cc1ccc(Cc2cc(=O)[nH]c(=O)[nH]2)cc1
survivor count [5]: 3 of 3
survivor count [6]: 3 of 3

CC1(C)CC2(OC2c2ccc([N+](=O)[O-])cc2)C(=O)c2ccccc21 (centres undefined)
survivor count [7]: 6 of 6

CC(/C=N\O)=N\O
survivor count [8]: 0 of 6

COc1ccc(COc2ccc([N+](=O)[O-])cc2)cc1OC
survivor count (T/C endpoint: mean survival time, dose: 300.0 mg/kg/injection, schedule: Q04DX002 (ip), vehicle: saline with Tween-80): 3 of 3

OCc1ccc(Cl)cc1Cl
survivor count (T/C endpoint: mean survival time, dose: 400.0 mg/kg/injection, schedule: Q01DX009 (ip), vehicle: saline with Tween-80): 3 of 6

NC1CCCCC1CC1CCCCC1 (centres undefined)
survivor count [9]: 4 of 6
survivor count [10]: 1 of 6
survivor count [7]: 0 of 6

O=S(=O)(OCC(COS(=O)(=O)c1ccccc1)(COS(=O)(=O)c1ccccc1)COS(=O)(=O)c1ccccc1)c1ccccc1
survivor count [7]: 6 of 6

CCN(CC)CC(=O)Nc1c(Cl)cccc1Cl
survivor count [11]: 2 of 6

O=[N+]([O-])c1ccc(C[Se]c2ncnc3c2ccn3C2OC(CO)C(O)C2O)cc1 (centres undefined)
survivor count (T/C endpoint: mean survival time, dose: 100.0 mg/kg/injection, schedule: Q01DX005 (ip), vehicle: saline): 0 of 6
survivor count (T/C endpoint: mean survival time, dose: 200.0 mg/kg/injection, schedule: Q01DX005 (ip), vehicle: saline): 0 of 6

CS(=O)(=O)OCCN(CCOS(C)(=O)=O)c1ccc(C=Nc2ccc(-c3csc(COc4ccccc4)n3)cc2)cc1
T/C (T/C endpoint: mean survival time, dose: 12.5 mg/kg/injection, schedule: Q01DX008 (ip), vehicle: Klucel (hydroxypropylcellulose) (HPC)): 125 % of control
T/C (T/C endpoint: mean survival time, dose: 25.0 mg/kg/injection, schedule: Q01DX008 (ip), vehicle: Klucel (hydroxypropylcellulose) (HPC)): 135 % of control
T/C (T/C endpoint: mean survival time, dose: 25.0 mg/kg/injection, schedule: Q01DX009 (ip), vehicle: Klucel (hydroxypropylcellulose) (HPC)): 125 % of control
T/C (T/C endpoint: mean survival time, dose: 50.0 mg/kg/injection, schedule: Q01DX008 (ip), vehicle: Klucel (hydroxypropylcellulose) (HPC)): 135 % of control
T/C [5]: 143 % of control
T/C (T/C endpoint: mean survival time, dose: 100.0 mg/kg/injection, schedule: Q01DX008 (ip), vehicle: Klucel (hydroxypropylcellulose) (HPC)): 137 % of control
T/C (T/C endpoint: mean survival time, dose: 100.0 mg/kg/injection, schedule: Q01DX009 (ip), vehicle: Klucel (hydroxypropylcellulose) (HPC)): 142 % of control
T/C (T/C endpoint: mean survival time, dose: 200.0 mg/kg/injection, schedule: Q01DX008 (ip), vehicle: Klucel (hydroxypropylcellulose) (HPC)): 133 % of control
T/C [6]: 131 % of control [5 of 6 alive]

O=C(c1cc2c3ccccc3ccc2c2ccccc12)C(Br)Br
survivor count [10]: 5 of 6
survivor count [7]: 5 of 6

CC(=O)ON1C(=O)C2C3C=CC(O3)C2C1=O (centres undefined)
survivor count (T/C endpoint: mean survival time, dose: 100.0 mg/kg/injection, schedule: Q01DX009 (ip), vehicle: water): 3 of 6
survivor count (T/C endpoint: mean survival time, dose: 200.0 mg/kg/injection, schedule: Q01DX009 (ip), vehicle: water): 1 of 6

Oc1ccccc1Cn1ccnc1
survivor count [12]: 6 of 6
survivor count [11]: 0 of 6

c1cc2c(c(CC3CO3)c1CC1CO1)OCCOCCOCCOCCO2 (centres undefined)
T/C (T/C endpoint: median survival time, dose: 6.25 mg/kg/injection, schedule: Q01DX009 (ip), vehicle: saline + alcohol): 132 % of control
T/C (T/C endpoint: median survival time, dose: 50.0 mg/kg/injection, schedule: Q01DX009 (ip), vehicle: saline + alcohol): 132 % of control

CN(C)CCNc1ccc(CO)c2sc3ccc(O)cc3c(=O)c12
T/C (T/C endpoint: median survival time, dose: 25.0 mg/kg/injection, schedule: Q01DX005 (ip), vehicle: saline with Tween-80): 147 % of control
T/C (T/C endpoint: median survival time, dose: 100.0 mg/kg/injection, schedule: Q01DX005 (ip), vehicle: saline with Tween-80): 135 % of control

CCn1c2[n+](c3ccccc31)CCC2
survivor count (T/C endpoint: mean survival time, dose: 75.0 mg/kg/injection, schedule: Q01DX001 (ip), vehicle: saline): 2 of 6
survivor count (T/C endpoint: mean survival time, dose: 150.0 mg/kg/injection, schedule: Q01DX001 (ip), vehicle: saline): 0 of 6
survivor count [3]: 2 of 6

CC1(C)CC(NC2=NCCO2)CC(C)(C)N1
survivor count (T/C endpoint: mean survival time, dose: 100.0 mg/kg/injection, schedule: Q01DX001 (ip), vehicle: saline with Tween-80): 2 of 6
survivor count (T/C endpoint: mean survival time, dose: 200.0 mg/kg/injection, schedule: Q01DX001 (ip), vehicle: saline with Tween-80): 0 of 6
survivor count [8]: 0 of 6

O=C1C2CCN(CC2)C1CN1CCC2(CC1)C(=O)NCN2c1ccccc1 (centres undefined)
survivor count [13]: 1 of 3

CS/C([S-])=N/[NH-].CS/C([S-])=N/[NH-].[Pd]
survivor count (T/C endpoint: mean survival time, dose: 50.0 mg/kg/injection, schedule: Q01DX009 (ip), vehicle: saline with Tween-80): 1 of 6
survivor count [1]: 0 of 6
survivor count [2]: 2 of 6
survivor count [8]: 0 of 6

CCN1/C(=C\c2ccc3cc(C)ccc3[n+]2CC)[Se]c2ccccc21
survivor count (T/C endpoint: mean survival time, dose: 75.0 mg/kg/injection, schedule: Q01DX001 (ip), vehicle: other): 0 of 6
survivor count (T/C endpoint: mean survival time, dose: 150.0 mg/kg/injection, schedule: Q01DX001 (ip), vehicle: other): 0 of 6
survivor count [4]: 0 of 6

Cc1ccc(-c2nc(SCc3ccc(Cl)cc3)[nH]c(=O)c2CCO)cc1
survivor count (T/C endpoint: mean survival time, dose: 400.0 mg/kg/injection, schedule: Q04DX003 (ip), vehicle: Klucel (hydroxypropylcellulose) (HPC)): 6 of 6

O=[N+]([O-])c1ccc(CSC2=NCCN2)cc1
survivor count [12]: 0 of 6
survivor count [11]: 0 of 6

Cc1ccc(C(=O)CCl)c(C)c1
survivor count (T/C endpoint: mean survival time, dose: 100.0 mg/kg/injection, schedule: Q04DX003 (ip), vehicle: Klucel (hydroxypropylcellulose) (HPC)): 2 of 6

NC(=O)NNC(=O)C(Cl)(Cl)Cl
survivor count (T/C endpoint: mean survival time, dose: 200.0 mg/kg/injection, schedule: Q04DX002 (ip), vehicle: saline): 2 of 3
survivor count (T/C endpoint: mean survival time, dose: 400.0 mg/kg/injection, schedule: Q04DX002 (ip), vehicle: saline): 0 of 3

COC(=O)c1[nH]c2ccccc2c(=O)c1Cl
survivor count [9]: 0 of 6
survivor count [10]: 0 of 6
survivor count [7]: 0 of 6

O=C(Nc1ccc(Cl)cc1)NN1CCCCCC1
survivor count (T/C endpoint: mean survival time, dose: 100.0 mg/kg/injection, schedule: Q04DX002 (ip), vehicle: saline with Tween-80): 2 of 3
survivor count [13]: 0 of 3
survivor count (T/C endpoint: mean survival time, dose: 400.0 mg/kg/injection, schedule: Q04DX002 (ip), vehicle: saline with Tween-80): 0 of 3
